According to paper PMC8500422:
No constants are given. Whether binding was seen depends on the method and setting. Binding seen in cells or lysates may run through a third protein. Some entries that bind do so weakly or less than the wild type. Sequences can lack the tags named with a protein.

Assays:
Experiment in all cases: co-IP; visible immunoprecipitation (VIP) assay: lysates of HEK293T cells coexpressing EGFP-fused and mChe-fused proteins (HMDEKN buffer: 10 mM HEPES pH 7.4, 5 mM MgSO4, 1 mM DTT, 0.5 mM EDTA, 25 mM KCl, 0.05% NP-40), precipitated with GST-tagged anti-GFP Nb on glutathione–Sepharose 4B beads, 1 h at 4°C; red fluorescence on the washed beads observed under a microscope
[1] = biological target: T1, EGFP-fused BROMI(1,102–1,298) (human) (UniProt Q96NH3)
T1 sequence: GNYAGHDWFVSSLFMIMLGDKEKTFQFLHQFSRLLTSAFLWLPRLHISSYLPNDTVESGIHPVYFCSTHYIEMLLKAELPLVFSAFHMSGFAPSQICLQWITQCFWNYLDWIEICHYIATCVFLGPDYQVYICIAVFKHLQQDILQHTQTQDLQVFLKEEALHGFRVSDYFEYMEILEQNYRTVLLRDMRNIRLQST

[2] = biological target: T2, EGFP-fused BROMI(243–1,298) (human) (UniProt Q96NH3)
T2 sequence: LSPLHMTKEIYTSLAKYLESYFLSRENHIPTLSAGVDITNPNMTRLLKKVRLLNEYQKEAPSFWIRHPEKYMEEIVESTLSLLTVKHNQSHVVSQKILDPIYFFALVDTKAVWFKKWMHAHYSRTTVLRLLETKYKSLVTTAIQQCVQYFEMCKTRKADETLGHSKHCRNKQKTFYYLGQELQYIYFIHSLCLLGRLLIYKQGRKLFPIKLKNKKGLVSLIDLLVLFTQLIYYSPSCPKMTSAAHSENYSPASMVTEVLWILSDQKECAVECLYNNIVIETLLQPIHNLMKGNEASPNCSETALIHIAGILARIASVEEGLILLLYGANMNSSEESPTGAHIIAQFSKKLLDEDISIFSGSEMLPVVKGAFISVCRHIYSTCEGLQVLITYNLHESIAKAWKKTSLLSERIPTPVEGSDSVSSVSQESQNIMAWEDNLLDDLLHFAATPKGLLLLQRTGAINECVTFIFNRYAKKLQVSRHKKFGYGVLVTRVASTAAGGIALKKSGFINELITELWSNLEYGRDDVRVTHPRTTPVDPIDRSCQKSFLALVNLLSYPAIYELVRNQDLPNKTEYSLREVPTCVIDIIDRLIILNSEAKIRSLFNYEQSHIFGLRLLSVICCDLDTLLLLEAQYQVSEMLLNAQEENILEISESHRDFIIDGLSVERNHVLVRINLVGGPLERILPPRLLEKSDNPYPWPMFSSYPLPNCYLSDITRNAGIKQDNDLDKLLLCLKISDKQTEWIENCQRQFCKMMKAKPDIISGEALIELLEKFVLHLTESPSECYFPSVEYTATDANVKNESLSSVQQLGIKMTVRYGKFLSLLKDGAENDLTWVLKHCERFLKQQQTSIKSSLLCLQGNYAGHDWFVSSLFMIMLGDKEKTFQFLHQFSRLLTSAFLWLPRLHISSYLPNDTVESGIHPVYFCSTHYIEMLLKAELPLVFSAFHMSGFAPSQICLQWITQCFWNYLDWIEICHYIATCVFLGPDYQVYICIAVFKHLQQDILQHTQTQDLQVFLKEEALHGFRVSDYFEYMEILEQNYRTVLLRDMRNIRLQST

[3] = biological target: T3, EGFP-fused BROMI(182–1,298) (human) (UniProt Q96NH3)
T3 sequence: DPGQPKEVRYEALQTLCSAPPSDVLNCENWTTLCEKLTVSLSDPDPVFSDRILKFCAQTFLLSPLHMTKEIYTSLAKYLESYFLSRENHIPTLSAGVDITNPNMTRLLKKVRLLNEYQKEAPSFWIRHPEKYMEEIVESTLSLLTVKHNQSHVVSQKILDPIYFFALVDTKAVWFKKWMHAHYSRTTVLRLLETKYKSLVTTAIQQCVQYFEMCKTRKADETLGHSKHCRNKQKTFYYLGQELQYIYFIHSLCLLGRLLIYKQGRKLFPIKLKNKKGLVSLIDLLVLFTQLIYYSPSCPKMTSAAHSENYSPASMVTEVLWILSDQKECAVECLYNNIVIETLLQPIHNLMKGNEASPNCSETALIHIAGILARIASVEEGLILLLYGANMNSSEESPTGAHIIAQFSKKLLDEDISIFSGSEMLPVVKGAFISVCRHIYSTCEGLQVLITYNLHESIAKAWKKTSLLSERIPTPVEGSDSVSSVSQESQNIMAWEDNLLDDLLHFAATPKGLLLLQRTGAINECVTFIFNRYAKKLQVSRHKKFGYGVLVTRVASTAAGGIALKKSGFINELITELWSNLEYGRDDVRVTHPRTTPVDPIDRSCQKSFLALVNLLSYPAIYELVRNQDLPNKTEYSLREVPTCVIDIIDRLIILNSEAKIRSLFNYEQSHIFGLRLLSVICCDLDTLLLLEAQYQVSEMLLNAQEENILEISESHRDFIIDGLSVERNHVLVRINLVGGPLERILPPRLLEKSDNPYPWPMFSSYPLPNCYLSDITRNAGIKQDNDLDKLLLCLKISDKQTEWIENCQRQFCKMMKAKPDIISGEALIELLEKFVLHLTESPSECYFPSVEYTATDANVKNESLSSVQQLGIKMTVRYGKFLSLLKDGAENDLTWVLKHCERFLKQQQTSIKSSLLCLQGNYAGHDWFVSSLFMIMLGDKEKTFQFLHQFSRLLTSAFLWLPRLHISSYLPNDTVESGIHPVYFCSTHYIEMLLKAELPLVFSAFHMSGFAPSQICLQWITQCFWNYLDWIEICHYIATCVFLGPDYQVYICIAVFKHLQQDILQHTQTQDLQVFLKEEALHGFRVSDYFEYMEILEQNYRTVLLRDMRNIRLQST

CCRK-mChe (from UniProt Q8IZL9-1 1-346)
binding [1]: no binding
binding [2]: binds
binding [3]: binds
